Test results published in article PMC4391915.

Key:
Assay in all cases: EMSA
[1] = target: T1, Bichir VDR (Polypterus senegalus (Senegal bichir)) (UniProt A0A088GJ14); details: no RXR, with and without 1,25D3; 100 mM KCl, 10 mM HEPES pH 7.6, 1 mM EDTA, 20 mM MgCl2, 1 mM DTT, 0.1 mg/ml BSA, 4 ug/mL salmon sperm DNA, 1% glycerol, 25 C; 100 ng each protein, 1 pmol probe in 20 uL; recombinant protein; residues 1-421; protein details: pET32a affinity tags incl. polyhistidine; label: 5' Cy5 (unlabeled as competitor)
T1 sequence (looked up): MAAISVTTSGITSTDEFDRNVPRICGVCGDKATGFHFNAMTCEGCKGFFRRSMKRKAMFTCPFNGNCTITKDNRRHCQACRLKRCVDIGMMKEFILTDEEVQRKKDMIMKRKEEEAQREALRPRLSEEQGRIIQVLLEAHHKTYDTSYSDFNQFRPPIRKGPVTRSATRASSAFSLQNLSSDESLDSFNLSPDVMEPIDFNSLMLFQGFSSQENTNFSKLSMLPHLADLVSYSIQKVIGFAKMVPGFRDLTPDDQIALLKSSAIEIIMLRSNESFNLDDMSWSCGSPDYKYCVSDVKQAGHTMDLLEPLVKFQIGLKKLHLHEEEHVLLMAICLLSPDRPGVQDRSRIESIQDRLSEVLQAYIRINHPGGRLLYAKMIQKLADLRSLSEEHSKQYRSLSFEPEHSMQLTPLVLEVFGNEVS

Human VDR (Homo sapiens) = target: T2, Human VDR (Homo sapiens) (UniProt P11473); details: no RXR, with and without 1,25D3; 100 mM KCl, 10 mM HEPES pH 7.6, 1 mM EDTA, 20 mM MgCl2, 1 mM DTT, 0.1 mg/ml BSA, 4 ug/mL salmon sperm DNA, 1% glycerol, 25 C; 100 ng each protein, 1 pmol probe in 20 uL; recombinant protein; residues 1-427; protein details: pET32a affinity tags incl. polyhistidine; label: 5' Cy5 (unlabeled as competitor)
T2 sequence (looked up): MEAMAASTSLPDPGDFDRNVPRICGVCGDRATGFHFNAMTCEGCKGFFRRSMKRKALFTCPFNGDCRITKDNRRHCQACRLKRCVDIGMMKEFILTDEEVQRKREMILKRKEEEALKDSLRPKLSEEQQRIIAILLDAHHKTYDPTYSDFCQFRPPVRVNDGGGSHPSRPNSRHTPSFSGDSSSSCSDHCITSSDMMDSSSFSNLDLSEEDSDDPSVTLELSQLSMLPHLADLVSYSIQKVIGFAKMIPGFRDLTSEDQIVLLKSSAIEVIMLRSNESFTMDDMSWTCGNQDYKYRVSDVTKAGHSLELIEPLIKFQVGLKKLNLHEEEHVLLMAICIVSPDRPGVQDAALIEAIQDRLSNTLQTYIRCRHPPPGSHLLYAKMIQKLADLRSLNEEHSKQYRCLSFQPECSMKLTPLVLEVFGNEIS

[2] = target: T3, Lamprey VDR (Petromyzon marinus (sea lamprey)) (UniProt Q7ZZY9); details: no RXR, with and without 1,25D3; 100 mM KCl, 10 mM HEPES pH 7.6, 1 mM EDTA, 20 mM MgCl2, 1 mM DTT, 0.1 mg/ml BSA, 4 ug/mL salmon sperm DNA, 1% glycerol, 25 C; 100 ng each protein, 1 pmol probe in 20 uL; recombinant protein; residues 1-406; protein details: pET32a affinity tags incl. polyhistidine; label: 5' Cy5 (unlabeled as competitor)
T3 sequence (looked up): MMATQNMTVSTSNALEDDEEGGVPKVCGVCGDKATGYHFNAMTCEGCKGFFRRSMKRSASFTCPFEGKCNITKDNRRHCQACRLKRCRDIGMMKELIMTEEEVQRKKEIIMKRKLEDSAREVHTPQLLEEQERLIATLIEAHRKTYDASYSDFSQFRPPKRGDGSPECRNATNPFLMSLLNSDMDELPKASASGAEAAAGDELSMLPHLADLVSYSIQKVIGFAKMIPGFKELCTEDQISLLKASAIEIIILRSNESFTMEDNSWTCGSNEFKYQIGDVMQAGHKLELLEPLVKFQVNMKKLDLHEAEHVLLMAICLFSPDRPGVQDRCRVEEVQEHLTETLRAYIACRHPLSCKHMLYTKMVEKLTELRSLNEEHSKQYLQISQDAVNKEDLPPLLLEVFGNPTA

RXRWT = details: RXR alone; 100 mM KCl, 10 mM HEPES pH 7.6, 1 mM EDTA, 20 mM MgCl2, 1 mM DTT, 0.1 mg/ml BSA, 4 ug/mL salmon sperm DNA, 1% glycerol, 25 C; 100 ng each protein, 1 pmol probe in 20 uL; recombinant protein; protein details: polyhistidine; label: 5' Cy5 (unlabeled as competitor)
[3] = target: T4, Skate VDR (Leucoraja erinacea (little skate)) (UniProt A0A088GDQ7); details: no RXR, with and without 1,25D3; 100 mM KCl, 10 mM HEPES pH 7.6, 1 mM EDTA, 20 mM MgCl2, 1 mM DTT, 0.1 mg/ml BSA, 4 ug/mL salmon sperm DNA, 1% glycerol, 25 C; 100 ng each protein, 1 pmol probe in 20 uL; recombinant protein; residues 1-434; label: 5' Cy5 (unlabeled as competitor)
T4 sequence (looked up): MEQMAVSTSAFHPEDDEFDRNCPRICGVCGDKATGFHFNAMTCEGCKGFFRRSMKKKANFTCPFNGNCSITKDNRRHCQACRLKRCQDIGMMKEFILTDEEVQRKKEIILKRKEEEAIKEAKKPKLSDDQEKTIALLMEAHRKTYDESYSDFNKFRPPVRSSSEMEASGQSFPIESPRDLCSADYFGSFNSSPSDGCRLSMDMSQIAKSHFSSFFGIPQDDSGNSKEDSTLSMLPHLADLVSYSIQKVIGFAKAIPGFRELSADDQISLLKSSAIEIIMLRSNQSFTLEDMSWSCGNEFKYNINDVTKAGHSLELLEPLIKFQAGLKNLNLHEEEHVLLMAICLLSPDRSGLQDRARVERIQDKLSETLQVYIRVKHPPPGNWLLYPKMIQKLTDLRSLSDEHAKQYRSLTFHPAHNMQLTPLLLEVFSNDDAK

Measured: binding result

AGCTTCAGGTCAAGGAGGTCAGAGAGC (double strand) [canonical VDRE (DR3)]
no binding: [1] | Human VDR (Homo sapiens) | [2] | RXRWT | [3]

GCTGAATGAACTTGCTGACCCTCTGCT (double strand) [XREM VDRE (CYP3A4 DR3)]
no binding: [1] | Human VDR (Homo sapiens) | [2] | [3]

Negatives hold for the conditions tested. For part of these data: Tags and fusion partners may be left off the protein sequences shown. For part of these data: For at least one entry, the source does not settle the construct or the ends of the probe.
